{"source": "PubChem BioAssay AID504791 – Drosophila RNAi Screening Center | 2011", "assay": "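Factors in Argonaute-based small RNA production and activity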 (primary screen)", "cells": "Drosophila S2-derived reporter cells", "reagents": "long dsRNA against Drosophila genes, about 150-250 ng dsRNA per well (siRNA assay); about 80-120 ng (miRNA assay)", "duration": "about 5 days (siRNA assay); about 4 days (miRNA assay)", "conditions": "copper sulfate induction of reporters: 25 µM (siRNA assay); 200 mM stated (miRNA assay), 1-2 days before reading", "read-out": "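Dual luciferase assay: Renilla to firefly signal ratio in each well, scaled to the mean ratio of its plate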", "units": "stable assay Renilla, run 1 in luminescence; stable assay firefly, run 1 in luminescence", "hit rule": "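First-pass picks had plate-scaled ratios over 1.5 for the siRNA assay, over 1.6 for the miRNA assay, or under 0.6; two distinct dsRNAs had to score alike on retest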", "note": "In all, the deposit lists about 23,000 reagents; this is an unselected part of those that have a named target and a result. Over the whole deposit, 199 (0.86%) are marked active. 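Plate-scaled ratios behind the calls are not deposited; printed light signals are raw; many rows marked increased or decreased are still called inactive.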 A number with no mark means an inactive call. Reagents against one gene are numbered here. A plus sign joins genes that one reagent is predicted to hit. Reagent sequences are not shown. Not stated in the record: the direction of the score."}
{"target": "wrm1", "dsRNA no.": 1, "stable assay Renilla, run 1": 6816, "stable assay firefly, run 1": 3.57e5}
{"target": "CG43317", "dsRNA no.": 1, "stable assay Renilla, run 1": 7464, "stable assay firefly, run 1": 4.31e5}
{"target": "CG11703", "dsRNA no.": 1, "stable assay Renilla, run 1": 8527, "stable assay firefly, run 1": 3.50e5}
{"target": "CG4892", "dsRNA no.": 1, "stable assay Renilla, run 1": 7376, "stable assay firefly, run 1": 4.47e5}
{"target": "Argk1", "dsRNA no.": 1, "stable assay Renilla, run 1": 3644, "stable assay firefly, run 1": 3.17e5}
{"target": "Argk1", "dsRNA no.": 2, "stable assay Renilla, run 1": 4900, "stable assay firefly, run 1": 3.81e5}
{"target": "Argk1", "dsRNA no.": 3, "stable assay Renilla, run 1": 8411, "stable assay firefly, run 1": 4.50e5}
{"target": "Argk1", "dsRNA no.": 4, "stable assay Renilla, run 1": 9129, "stable assay firefly, run 1": 4.06e5}
{"target": "Argk1", "dsRNA no.": 5, "stable assay Renilla, run 1": 5471, "stable assay firefly, run 1": 5.28e5}
{"target": "be", "dsRNA no.": 1, "stable assay Renilla, run 1": 7170, "stable assay firefly, run 1": 5.09e5}
{"target": "be", "dsRNA no.": 2, "stable assay Renilla, run 1": 3547, "stable assay firefly, run 1": 2.89e5}
{"target": "be", "dsRNA no.": 3, "stable assay Renilla, run 1": 4275, "stable assay firefly, run 1": 2.81e5}
{"target": "CG17780 + CG17781", "dsRNA no.": 1, "stable assay Renilla, run 1": 7512, "stable assay firefly, run 1": 3.40e5}
{"target": "Aatf", "dsRNA no.": 1, "stable assay Renilla, run 1": 6718, "stable assay firefly, run 1": 4.44e5}
{"target": "wupA", "dsRNA no.": 1, "stable assay Renilla, run 1": 5155, "stable assay firefly, run 1": 4.22e5}
{"target": "wupA", "dsRNA no.": 2, "stable assay Renilla, run 1": 5003, "stable assay firefly, run 1": 4.97e5}
{"target": "CG32628 (retired record)", "dsRNA no.": 1, "stable siRNA reporter change": "reporter ratio raised past the hit cutoff", "stable assay Renilla, run 1": 2808, "stable assay firefly, run 1": 77057}
{"target": "ghi", "dsRNA no.": 1, "stable assay Renilla, run 1": 5891, "stable assay firefly, run 1": 3.66e5}
{"target": "CG42720 (retired record)", "dsRNA no.": 1, "stable assay Renilla, run 1": 4828, "stable assay firefly, run 1": 5.26e5}
{"target": "UbcE2H", "dsRNA no.": 1, "stable assay Renilla, run 1": 8653, "stable assay firefly, run 1": 6.29e5}

The list goes on (4 carried over from the part before).
{"target": "CG32628 (retired record)", "dsRNA no.": 1, "stable siRNA reporter change": "reporter ratio raised past the hit cutoff", "stable assay Renilla, run 1": 2808, "stable assay firefly, run 1": 77057}
{"target": "ghi", "dsRNA no.": 1, "stable assay Renilla, run 1": 5891, "stable assay firefly, run 1": 3.66e5}
{"target": "CG42720 (retired record)", "dsRNA no.": 1, "stable assay Renilla, run 1": 4828, "stable assay firefly, run 1": 5.26e5}
{"target": "UbcE2H", "dsRNA no.": 1, "stable assay Renilla, run 1": 8653, "stable assay firefly, run 1": 6.29e5}
{"target": "vtd", "dsRNA no.": 1, "stable assay Renilla, run 1": 4851, "stable assay firefly, run 1": 3.61e5}
{"target": "CG13991", "dsRNA no.": 1, "stable assay Renilla, run 1": 7954, "stable assay firefly, run 1": 4.12e5}
{"target": "Iru", "dsRNA no.": 1, "stable assay Renilla, run 1": 9395, "stable assay firefly, run 1": 4.16e5}
{"target": "Vha16-2", "dsRNA no.": 1, "stable assay Renilla, run 1": 5963, "stable assay firefly, run 1": 3.52e5}
{"target": "Bet3", "dsRNA no.": 1, "stable assay Renilla, run 1": 6798, "stable assay firefly, run 1": 4.18e5}
{"target": "CG32181", "dsRNA no.": 1, "stable assay Renilla, run 1": 3104, "stable assay firefly, run 1": 3.01e5}
{"target": "CG32983", "dsRNA no.": 1, "stable assay Renilla, run 1": 10303, "stable assay firefly, run 1": 7.37e5}
{"target": "Lerp", "dsRNA no.": 1, "stable assay Renilla, run 1": 7027, "stable assay firefly, run 1": 3.39e5}
{"target": "Lerp", "dsRNA no.": 2, "stable assay Renilla, run 1": 6958, "stable assay firefly, run 1": 4.77e5}
{"target": "Lerp", "dsRNA no.": 3, "stable assay Renilla, run 1": 7722, "stable assay firefly, run 1": 3.48e5}
{"target": "Lerp", "dsRNA no.": 4, "stable assay Renilla, run 1": 5840, "stable assay firefly, run 1": 3.55e5}
{"target": "CG31855", "dsRNA no.": 1, "stable assay Renilla, run 1": 9276, "stable assay firefly, run 1": 5.18e5}
{"target": "crq", "dsRNA no.": 1, "stable assay Renilla, run 1": 8491, "stable assay firefly, run 1": 6.07e5}
{"target": "Pms2", "dsRNA no.": 1, "stable assay Renilla, run 1": 10929, "stable assay firefly, run 1": 5.59e5}
{"target": "CG7203", "dsRNA no.": 1, "stable assay Renilla, run 1": 6371, "stable assay firefly, run 1": 3.88e5}
